Laboratory results from patent publication US20180305421A1 (SHIRE HUMAN GENETIC THERAPIES, published 2018).
Results are given in words; binding and its absence hold for the method and conditions named. Some binding calls cover weakened binding; strength is not graded here.

T1: activin (UniProt P08476 311-426)
T1 sequence (looked up): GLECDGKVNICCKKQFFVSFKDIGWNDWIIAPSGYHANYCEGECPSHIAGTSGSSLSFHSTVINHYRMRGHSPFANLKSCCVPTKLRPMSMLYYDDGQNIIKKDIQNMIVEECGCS

T2: BMP-9 (UniProt Q9UK05 320-429)
T2 sequence (looked up): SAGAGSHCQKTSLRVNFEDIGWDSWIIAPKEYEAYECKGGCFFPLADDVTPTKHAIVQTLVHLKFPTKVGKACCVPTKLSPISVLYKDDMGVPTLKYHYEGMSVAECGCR

T3: BMP-7 (UniProt P18075 293-431)
T3 sequence (looked up): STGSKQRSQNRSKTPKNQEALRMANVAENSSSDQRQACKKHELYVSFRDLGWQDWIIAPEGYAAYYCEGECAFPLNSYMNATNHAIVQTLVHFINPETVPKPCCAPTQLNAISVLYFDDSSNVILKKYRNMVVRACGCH

T4: myostatin (UniProt O14793 267-375)
T4 sequence (looked up): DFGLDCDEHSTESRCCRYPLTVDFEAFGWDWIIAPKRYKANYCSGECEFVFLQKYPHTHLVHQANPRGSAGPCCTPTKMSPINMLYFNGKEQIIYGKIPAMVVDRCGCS

T5: BMP-4 (UniProt P12644 293-408)
T5 sequence (looked up): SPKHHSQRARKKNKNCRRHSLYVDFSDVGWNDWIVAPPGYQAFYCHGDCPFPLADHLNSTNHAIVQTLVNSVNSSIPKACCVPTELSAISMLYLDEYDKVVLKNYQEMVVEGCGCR

T6: BMP-10 (UniProt O95393 317-424)
T6 sequence (looked up): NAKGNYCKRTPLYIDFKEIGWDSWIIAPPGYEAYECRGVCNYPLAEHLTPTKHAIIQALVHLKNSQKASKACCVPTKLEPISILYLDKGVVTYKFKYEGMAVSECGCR

T7: BMP-6 (UniProt P22004 382-513, limits assumed)
T7 sequence (looked up): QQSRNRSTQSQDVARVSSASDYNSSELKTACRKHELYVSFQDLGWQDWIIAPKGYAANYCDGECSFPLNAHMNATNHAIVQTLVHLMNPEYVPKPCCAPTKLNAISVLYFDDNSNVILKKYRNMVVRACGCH


Columns and labels:
Assay in all cases: Biacore SPR
activin = biological target: T1, activin
BMP-9 = biological target: T2, BMP-9
BMP-7 = biological target: T3, BMP-7
myostatin = biological target: T4, myostatin
BMP-4 = biological target: T5, BMP-4
BMP-10 = biological target: T6, BMP-10
BMP-6 = biological target: T7, BMP-6

binding (activin) | binding (BMP-9) | binding (BMP-7) | binding (myostatin) | binding (BMP-4) | binding (BMP-10) | binding (BMP-6) | Binder
binds | – | – | – | – | – | – | follistatin-Fc human chimera FS315-hFc (Sino Biological Inc. Catalog Number 10685-H02H) (Fc fusion, Bought fusion protein; also called Sino Biological FS315-hFc; not shown: human Fc of the bought product) GNCWLRQAKNGRCQVLYKTELSKEECCSTGRLSTSWTEEDVNDNTLFKWMIFNGGAPNCIPCKETCENVDCGPGKKCRMNKKNKPRCVCAPDCSNITWKGPVCGLDGKTYRNECALLKARCKEQPELEVQYQGRCKKTCRDVFCPGSSTCVVDQTNNAYCVTCNRICPEPASSEQYLCGNDGVTYSSACHLRKATCLLGRSIGLAYEGKCIKAKSCEDIQCTGGKKCLWDFKVGRGRCSLCDELCPDSKSDEPVCASDNATYASECAMKEAACSSGVLLEVKHSGSCNSISEDTEEEEEDEDQDYSFPISSILEWALEVLFQGP
– | binds | binds | binds | binds | binds | binds | sActRIIB-hFc (Fc fusion, UniProt Q13705 25-134, looked up, Control protein in the Biacore assay; also called sActRTIB-hFc; sActRIIB-Fc; not shown: human Fc) ETRECIYYNANWELERTNQSGLERCEGEQDKRLHCYASWRNSSGTIELVKKGCWLDDFNCYDRQECVATEENPQVYFCCCEGNFCNERFTHLPEAGGPEVTYEPPPTAPT
binds | – | – | – | – | – | – | FS315 (R&D Systems) (other) GNCWLRQAKNGRCQVLYKTELSKEECCSTGRLSTSWTEEDVNDNTLFKWMIFNGGAPNCIPCKETCENVDCGPGKKCRMNKKNKPRCVCAPDCSNITWKGPVCGLDGKTYRNECALLKARCKEQPELEVQYQGRCKKTCRDVFCPGSSTCVVDQTNNAYCVTCNRICPEPASSEQYLCGNDGVTYSSACHLRKATCLLGRSIGLAYEGKCIKAKSCEDIQCTGGKKCLWDFKVGRGRCSLCDELCPDSKSDEPVCASDNATYASECAMKEAACSSGVLLEVKHSGSCNSISEDTEEEEEDEDQDYSFPISSILEW
